Test results from patent US20190380355A1, “IMPROVED CONTROL OF BACTERIAL CONTAMINATION IN FOOD” (MICREOS FOOD SAFETY B.V., priority 2017, published 2019).
Some entries share one result that the patent states for a list of compounds. At least one structure is not confirmed: it was looked up by name or label, or the drawing left a doubt.

Tested on: Listeria monocytogenes
Assay: Listeria on smoked salmon fillet, surface spray, 21 days storage (Example 4)
Assay type: cell-based
Details: 1 Log CFU/cm^2 inoculum, vacuum packed, 4/7/9 degrees Celsius for 7 days each, FIG. 5

`CC(O)C(=O)[O-].[K+]` (stereo not shown) [potassium lactate] was tested, and the “time Listeria outgrowth controlled” value was “up to 14 days”.
